Assay results from PMC12586438.

Molecular target: T1, FAIM2, bait of the IP-MS (UniProt Q9BWQ8)
T1 sequence: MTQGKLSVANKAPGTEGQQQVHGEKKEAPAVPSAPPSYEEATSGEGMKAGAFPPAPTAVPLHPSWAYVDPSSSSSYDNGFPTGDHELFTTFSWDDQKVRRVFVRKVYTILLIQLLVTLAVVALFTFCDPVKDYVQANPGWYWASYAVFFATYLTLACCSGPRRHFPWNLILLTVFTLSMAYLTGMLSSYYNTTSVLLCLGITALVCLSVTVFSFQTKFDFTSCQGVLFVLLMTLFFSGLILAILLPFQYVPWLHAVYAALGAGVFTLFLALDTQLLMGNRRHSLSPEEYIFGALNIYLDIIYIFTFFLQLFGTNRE
Assay: affinity purification with mass spectrometry; immunoprecipitation of FAIM2 and mass spectrometry (IP-MS); cells not given

binding: binds
B1: CRTC2, hit of the IP-MS (protein, UniProt Q53ET0 1-693)
chain: MATSGANGPGSATASASNPRKFSEKIALQKQRQAEETAAFEEVMMDIGSTRLQAQKLRLAYTRSSHYGGSLPNVNQIGSGLAEFQSPLHSPLDSSRSTRHHGLVERVQRDPRRMVSPLRRYTRHIDSSPYSPAYLSPPPESSWRRTMAWGNFPAEKGQLFRLPSALNRTSSDSALHTSVMNPSPQDTYPGPTPPSILPSRRGGILDGEMDPKVPAIEENLLDDKHLLKPWDAKKLSSSSSRPRSCEVPGINIFPSPDQPANVPVLPPAMNTGGSLPDLTNLHFPPPLPTPLDPEETAYPSLSGGNSTSNLTHTMTHLGISRGMGLGPGYDAPGLHSPLSHPSLQSSLSNPNLQASLSSPQPQLQGSHSHPSLPASSLARHVLPTTSLGHPSLSAPALSSSSSSSSTSSPVLGAPSYPASTPGASPHHRRVPLSPLSLLAGPADARRSQQQLPKQFSPTMSPTLSSITQGVPLDTSKLSTDQRLPPYPYSSPSLVLPTQPHTPKSLQQPGLPSQSCSVQSSGGQPPGRQSHYGTPYPPGPSGHGQQSYHRPMSDFNLGNLEQFSMESPSASLVLDPPGFSEGPGFLGGEGPMGGPQDPHTFNHQNLTHCSRHGSGPNIILTGDSSPGFSKEIAAALAGVPGFEVSAAGLELGLGLEDELRMEPLGLEGLNMLSDPCALLPDPAVEESFRSDRLQ

These are yes or no findings as the source states them, for the method shown. In cells and extracts the contact can be indirect. These calls come from enrichment with a bait or labelling near it, and not all partners need be listed.
